Reference: PMC5982823, “The Pseudokinase Domain of Saccharomyces cerevisiae Tra1 Is Required for Nuclear Localization and Incorporation into the SAGA and NuA4 Complexes” (G3: Genes|Genomes|Genetics, 2018)
No constants are given. Whether binding was seen depends on the method and setting. In cells and extracts the contact can be indirect. Some binding calls cover weakened binding; strength is not graded here.

Protein sequences, listed by entry. Tags and fused reporters are not part of them. Lines headed by an entry give the natural chain unless they say otherwise; changes in a name come on top.
UniProt P38811: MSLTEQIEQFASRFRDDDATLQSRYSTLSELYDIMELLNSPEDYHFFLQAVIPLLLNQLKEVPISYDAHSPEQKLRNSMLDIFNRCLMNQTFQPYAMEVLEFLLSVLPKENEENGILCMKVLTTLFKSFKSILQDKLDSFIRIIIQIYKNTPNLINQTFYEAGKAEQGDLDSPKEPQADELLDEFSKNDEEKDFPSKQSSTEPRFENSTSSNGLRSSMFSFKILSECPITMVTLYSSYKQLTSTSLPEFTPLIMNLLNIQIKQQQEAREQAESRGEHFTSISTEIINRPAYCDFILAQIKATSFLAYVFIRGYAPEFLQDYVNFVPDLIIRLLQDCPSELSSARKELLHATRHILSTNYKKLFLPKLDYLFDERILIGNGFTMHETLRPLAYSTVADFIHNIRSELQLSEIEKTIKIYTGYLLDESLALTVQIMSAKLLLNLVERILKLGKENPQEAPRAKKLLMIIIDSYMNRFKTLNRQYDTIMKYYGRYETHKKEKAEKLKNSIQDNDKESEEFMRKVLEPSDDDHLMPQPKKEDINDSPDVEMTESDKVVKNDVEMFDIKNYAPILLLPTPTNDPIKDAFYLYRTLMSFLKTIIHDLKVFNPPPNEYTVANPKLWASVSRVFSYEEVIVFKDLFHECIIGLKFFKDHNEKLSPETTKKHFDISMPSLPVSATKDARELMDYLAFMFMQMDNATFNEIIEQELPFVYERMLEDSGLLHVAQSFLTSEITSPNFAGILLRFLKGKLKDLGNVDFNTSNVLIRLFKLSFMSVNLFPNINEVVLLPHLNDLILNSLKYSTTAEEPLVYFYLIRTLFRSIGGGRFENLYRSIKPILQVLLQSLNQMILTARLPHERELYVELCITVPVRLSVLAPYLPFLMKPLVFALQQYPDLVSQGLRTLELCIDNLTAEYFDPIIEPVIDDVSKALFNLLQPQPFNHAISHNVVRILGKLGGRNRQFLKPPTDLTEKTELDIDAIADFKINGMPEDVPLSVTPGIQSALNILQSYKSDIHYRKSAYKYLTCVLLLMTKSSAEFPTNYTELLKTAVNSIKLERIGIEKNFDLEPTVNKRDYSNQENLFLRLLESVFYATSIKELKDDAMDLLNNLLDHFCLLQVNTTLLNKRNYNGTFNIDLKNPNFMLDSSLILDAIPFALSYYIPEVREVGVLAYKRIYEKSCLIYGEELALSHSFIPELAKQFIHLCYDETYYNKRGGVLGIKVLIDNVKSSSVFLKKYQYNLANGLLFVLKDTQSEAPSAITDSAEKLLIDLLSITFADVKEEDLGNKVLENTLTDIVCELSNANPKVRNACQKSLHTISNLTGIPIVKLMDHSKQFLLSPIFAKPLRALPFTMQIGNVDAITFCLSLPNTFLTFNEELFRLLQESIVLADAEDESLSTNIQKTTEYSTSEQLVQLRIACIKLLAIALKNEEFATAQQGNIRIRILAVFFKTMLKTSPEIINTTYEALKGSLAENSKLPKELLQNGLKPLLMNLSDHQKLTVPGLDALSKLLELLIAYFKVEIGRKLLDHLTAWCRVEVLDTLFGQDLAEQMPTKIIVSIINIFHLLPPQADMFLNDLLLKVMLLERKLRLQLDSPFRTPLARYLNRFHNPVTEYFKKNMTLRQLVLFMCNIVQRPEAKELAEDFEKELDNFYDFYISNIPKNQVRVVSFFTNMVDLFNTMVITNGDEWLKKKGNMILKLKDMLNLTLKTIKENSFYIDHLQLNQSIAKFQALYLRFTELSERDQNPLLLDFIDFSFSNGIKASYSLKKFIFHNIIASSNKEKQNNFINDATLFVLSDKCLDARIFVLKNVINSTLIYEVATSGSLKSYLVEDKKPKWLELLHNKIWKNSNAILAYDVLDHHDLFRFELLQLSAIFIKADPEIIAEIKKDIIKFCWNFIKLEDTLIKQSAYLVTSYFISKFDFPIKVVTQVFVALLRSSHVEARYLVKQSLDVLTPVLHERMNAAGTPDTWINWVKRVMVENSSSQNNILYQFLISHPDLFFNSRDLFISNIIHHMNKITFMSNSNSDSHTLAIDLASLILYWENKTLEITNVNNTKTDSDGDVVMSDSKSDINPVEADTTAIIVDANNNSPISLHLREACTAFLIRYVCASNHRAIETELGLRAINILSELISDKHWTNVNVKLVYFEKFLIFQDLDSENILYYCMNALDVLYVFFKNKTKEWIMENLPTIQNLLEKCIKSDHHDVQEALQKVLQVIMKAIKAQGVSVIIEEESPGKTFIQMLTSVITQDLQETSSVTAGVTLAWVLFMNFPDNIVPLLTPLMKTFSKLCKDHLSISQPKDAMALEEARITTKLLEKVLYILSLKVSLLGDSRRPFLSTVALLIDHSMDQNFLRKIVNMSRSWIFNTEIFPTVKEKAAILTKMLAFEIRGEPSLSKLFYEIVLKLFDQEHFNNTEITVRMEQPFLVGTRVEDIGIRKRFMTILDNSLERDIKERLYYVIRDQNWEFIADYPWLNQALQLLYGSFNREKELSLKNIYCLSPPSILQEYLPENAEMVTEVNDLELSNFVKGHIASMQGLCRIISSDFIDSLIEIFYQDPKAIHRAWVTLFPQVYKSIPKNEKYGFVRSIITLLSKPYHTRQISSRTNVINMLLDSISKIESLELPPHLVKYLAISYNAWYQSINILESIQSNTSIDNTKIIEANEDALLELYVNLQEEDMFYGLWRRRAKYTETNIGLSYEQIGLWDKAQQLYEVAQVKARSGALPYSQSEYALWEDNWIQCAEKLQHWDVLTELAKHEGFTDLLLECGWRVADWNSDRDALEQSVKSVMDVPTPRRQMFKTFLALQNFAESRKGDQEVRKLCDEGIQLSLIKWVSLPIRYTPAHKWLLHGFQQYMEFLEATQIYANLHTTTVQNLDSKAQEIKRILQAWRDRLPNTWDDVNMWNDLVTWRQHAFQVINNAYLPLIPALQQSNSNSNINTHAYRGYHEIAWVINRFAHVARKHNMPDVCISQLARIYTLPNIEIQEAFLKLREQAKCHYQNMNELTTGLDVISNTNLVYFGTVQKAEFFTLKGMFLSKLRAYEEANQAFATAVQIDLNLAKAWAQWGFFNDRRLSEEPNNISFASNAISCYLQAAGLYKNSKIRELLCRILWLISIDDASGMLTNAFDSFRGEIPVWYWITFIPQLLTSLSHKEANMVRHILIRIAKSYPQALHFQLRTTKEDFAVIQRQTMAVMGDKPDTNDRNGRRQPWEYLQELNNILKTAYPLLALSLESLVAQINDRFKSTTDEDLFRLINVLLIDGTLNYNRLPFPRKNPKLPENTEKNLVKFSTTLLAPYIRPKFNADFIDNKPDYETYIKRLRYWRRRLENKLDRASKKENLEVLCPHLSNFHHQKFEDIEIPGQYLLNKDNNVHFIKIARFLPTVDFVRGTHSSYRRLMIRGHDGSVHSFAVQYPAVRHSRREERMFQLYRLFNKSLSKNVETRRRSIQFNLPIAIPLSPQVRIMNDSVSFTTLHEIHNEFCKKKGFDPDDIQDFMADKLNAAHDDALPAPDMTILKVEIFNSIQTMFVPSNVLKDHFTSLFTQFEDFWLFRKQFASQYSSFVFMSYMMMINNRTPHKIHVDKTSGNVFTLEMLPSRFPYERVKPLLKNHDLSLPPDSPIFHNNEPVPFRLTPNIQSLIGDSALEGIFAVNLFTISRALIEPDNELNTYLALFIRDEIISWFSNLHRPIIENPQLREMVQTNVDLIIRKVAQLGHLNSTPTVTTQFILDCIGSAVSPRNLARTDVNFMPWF
UniProt P35177: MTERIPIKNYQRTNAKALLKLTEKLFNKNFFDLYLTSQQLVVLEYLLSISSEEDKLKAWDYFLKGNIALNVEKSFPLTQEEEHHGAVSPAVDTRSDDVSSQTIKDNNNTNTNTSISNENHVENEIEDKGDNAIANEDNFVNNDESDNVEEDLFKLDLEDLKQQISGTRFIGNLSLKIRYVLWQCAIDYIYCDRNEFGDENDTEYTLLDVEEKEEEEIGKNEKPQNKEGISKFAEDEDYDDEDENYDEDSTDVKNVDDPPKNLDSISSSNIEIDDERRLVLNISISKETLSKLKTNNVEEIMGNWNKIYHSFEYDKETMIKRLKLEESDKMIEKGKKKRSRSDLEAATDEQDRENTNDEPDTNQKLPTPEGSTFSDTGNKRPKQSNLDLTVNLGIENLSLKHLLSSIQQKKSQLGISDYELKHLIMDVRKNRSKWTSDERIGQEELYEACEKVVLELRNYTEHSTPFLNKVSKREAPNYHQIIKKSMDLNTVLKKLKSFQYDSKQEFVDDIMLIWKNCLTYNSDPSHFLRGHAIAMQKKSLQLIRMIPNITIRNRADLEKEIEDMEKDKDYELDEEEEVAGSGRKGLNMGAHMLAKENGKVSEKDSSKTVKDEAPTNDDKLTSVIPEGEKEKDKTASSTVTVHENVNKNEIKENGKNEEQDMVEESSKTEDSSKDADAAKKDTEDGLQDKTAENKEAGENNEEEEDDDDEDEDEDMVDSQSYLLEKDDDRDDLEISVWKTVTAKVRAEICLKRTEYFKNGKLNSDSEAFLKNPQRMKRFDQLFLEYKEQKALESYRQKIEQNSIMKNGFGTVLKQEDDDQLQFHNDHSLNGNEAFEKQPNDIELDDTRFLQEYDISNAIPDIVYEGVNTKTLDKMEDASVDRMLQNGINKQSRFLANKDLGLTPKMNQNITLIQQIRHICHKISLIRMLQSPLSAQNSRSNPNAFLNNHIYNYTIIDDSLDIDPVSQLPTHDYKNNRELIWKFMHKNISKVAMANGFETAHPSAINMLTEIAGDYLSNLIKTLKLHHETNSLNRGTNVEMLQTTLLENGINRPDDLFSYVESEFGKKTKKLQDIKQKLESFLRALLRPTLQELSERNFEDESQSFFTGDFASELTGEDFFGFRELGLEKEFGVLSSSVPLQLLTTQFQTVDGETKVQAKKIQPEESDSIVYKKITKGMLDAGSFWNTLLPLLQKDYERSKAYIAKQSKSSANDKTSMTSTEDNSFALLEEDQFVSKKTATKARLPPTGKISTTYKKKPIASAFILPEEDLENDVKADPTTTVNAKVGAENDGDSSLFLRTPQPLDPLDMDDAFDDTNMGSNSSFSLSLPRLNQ

Key:
[1] = target: Flag^5-tagged Tra1 (wild type) (S. cerevisiae) (UniProt P38811); assay: co-IP; Flag^5-Tra1 or Flag^5-Tra1 Q3 pulled down with anti-Flag M2 magnetic beads from 2 mg crude lysate of heterozygous diploid strains; myc^9-Spt7 detected with anti-myc antibody
[2] = target: Flag^5-tagged Tra1 Q3 (R3389Q, R3390Q, R3456Q) (S. cerevisiae) (UniProt P38811); assay: as above

binding [1]: binds
binding [2]: binds
Substance: myc^9-tagged Spt7, full-length form (Spt7^SAGA) (from UniProt P35177 1-1332)
